# Experimental data as given in PubChem BioAssay AID1671190 (National Center for Advancing Translational Sciences (NCATS), 2021).
# Sequences of proteins named here, by UniProt entry; tags and fusion partners are left off. A change or cut given only in a name is not applied to a line headed by its entry.
# UniProt P18054: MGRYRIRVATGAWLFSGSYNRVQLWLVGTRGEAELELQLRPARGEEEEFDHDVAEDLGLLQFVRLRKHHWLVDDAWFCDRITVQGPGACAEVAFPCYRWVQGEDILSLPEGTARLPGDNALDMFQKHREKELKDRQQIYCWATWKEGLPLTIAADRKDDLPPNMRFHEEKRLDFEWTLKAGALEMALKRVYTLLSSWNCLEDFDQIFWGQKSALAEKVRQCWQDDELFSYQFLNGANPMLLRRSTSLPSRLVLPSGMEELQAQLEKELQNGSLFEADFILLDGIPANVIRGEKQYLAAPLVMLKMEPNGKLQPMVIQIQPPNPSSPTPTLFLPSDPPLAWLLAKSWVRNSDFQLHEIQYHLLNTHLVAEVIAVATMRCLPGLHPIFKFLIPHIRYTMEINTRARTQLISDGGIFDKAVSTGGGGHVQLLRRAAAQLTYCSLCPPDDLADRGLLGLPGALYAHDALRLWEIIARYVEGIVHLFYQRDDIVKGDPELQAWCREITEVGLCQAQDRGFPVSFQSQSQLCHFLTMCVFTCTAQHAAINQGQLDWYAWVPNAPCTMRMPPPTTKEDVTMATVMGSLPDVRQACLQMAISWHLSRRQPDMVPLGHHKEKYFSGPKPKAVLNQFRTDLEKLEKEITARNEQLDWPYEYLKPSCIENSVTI
# Among all 580,000 compounds or so, about 6,100 (1.1%) were called active. This list was built around the results that the source calls inconclusive (neither active nor inactive); the mix of calls is not that of the screen. Calls come from the whole dose curve; as a rule, active = well fitted inhibition curve with a large enough effect; inconclusive = small, poorly fitted or top-dose-only effect, or another doubt; inactive = no such curve, though single readings can be large or run the other way. A potency beside an inconclusive call is a rough fit, not a confirmed value.
# Biological target: Polyunsaturated fatty acid lipoxygenase ALOX12 (Homo sapiens) (UniProt P18054)
# Assay: Primary qHTS assay for inhibitors of human arachidonate 12S-lipoxygenase (ALOX12): Round 2
# Conditions: purified 12hLO, xylenol orange hydroperoxide absorbance; series mostly up to 108 µM
# Summary of the method: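 Purified human 12hLO (150 nM final) in 25 mM Hepes, 0.01% Triton X-100, pH 7.0 was preincubated 15 min at room temperature with compound. Then 40 uM arachidonic acid was added, 30 min. Hydroperoxide was read by Fe-XO absorbance ratio 573/405 nm.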
# Potency is the fitted concentration of half-maximal effect.
row,Structure (SMILES),Potency
1,O=C(Cn1cnc2c(nnn2-c2ccccc2)c1=O)N1CCCc2ccccc21,inactive
2,COc1cccc([S+](=O)([O-])N2CCn3c(nn(-c4cccc(Cl)c4)c3=O)C2)c1,active: 6.31 µM
3,FC(F)(F)Oc1ccccc1C(c1nnnn1-c1ccc2c(c1)OCCO2)N1CCN(C/C=C/c2ccccc2)CC1 (stereo not drawn),"inconclusive: 112 µM [inhibitor, partial curve, poor fit]"
4,O=C(O)CCc1ccc(S(=O)(=O)Nc2ccccc2C(=O)NCCc2ccccc2)cc1,"inconclusive: 6.31 µM [inhibitor, full curve, poor fit]"
5,Clc1ccc(-c2csc(N/N=C\c3cccnc3)n2)cc1,"inconclusive: 100 µM [inhibitor, partial curve, poor fit]"
6,O=C(CNC(=O)N1CC(=O)Nc2ccccc21)Nc1ccc(Br)cc1F,"inconclusive: 89.1 µM [inhibitor, single point]"
7,Cc1cc(C)cc(NC(=O)c2nccnc2C(=O)O)c1,"inconclusive: 3.98 µM [inhibitor, full curve, poor fit]"
8,Cc1ccc2nc(-c3ccc(NC(=O)CN4CCN(C(=O)c5ccco5)CC4)cc3)sc2c1,"inconclusive: 14.1 µM [inhibitor, partial curve, poor fit]"
9,CCOc1ccc(C2C=C(c3ccc(C)cc3)Nc3nnnn32)cc1 (stereo not drawn),inactive
10,CC1(C(=O)NS(=O)(=O)c2cccc(C#N)c2)CCN1C(=O)c1ccc(C2CCCCC2)cc1 (stereo not drawn),"inconclusive: 10 µM [inhibitor, full curve, poor fit]"
11,CN(C)Cc1ccccc1-c1nc(N2CCOCC2)c2ccccc2n1,"inconclusive: 8.91 µM [inhibitor, full curve, poor fit]"
12,COc1ccc(-c2n[nH]c(C)c2-c2ccc(Cl)cc2)c(O)c1,"inconclusive: 44.7 µM [inhibitor, partial curve, poor fit]"
13,O=C(c1cccc(F)c1)N1CC(=O)N2[C@H](CO)[C@@H](c3ccc(Br)cc3)[C@@H]2C1,"inconclusive: 56.2 µM [inhibitor, partial curve, poor fit]"
14,CN1CCN(C2CN(Cc3cn(Cc4ccc(Cl)cc4)nn3)S(=O)(=O)C2)CC1 (stereo not drawn),active: 28.2 µM
15,Fc1ccccc1NC(=S)NCCc1ccccc1,inactive
16,CCCN(C(=O)c1ccccc1Cc1ccccc1)C1CCS(=O)(=O)C1 (stereo not drawn),"inconclusive: 31.6 µM [inhibitor, partial curve, poor fit]"
17,N#Cc1ccc(C(=O)Nc2cc(S(=O)(=O)N3CCOCC3)ccc2N2CCCC2)cc1,inactive
18,Cc1cc(/C=C(\C#N)c2nc3ccccc3s2)cc2c1OC(C)C2 (stereo not drawn),inactive
19,CCN(CC)c1cc(C)c2cc(NC(=O)c3ccc(F)cc3Cl)ccc2n1,inactive
20,Cc1cc(SCC(=O)Nc2ccccc2)nc(C)n1,"inconclusive: 100 µM [inhibitor, single point]"
21,Cc1ccc2nc(SCC(=O)NCc3ccco3)c(C)cc2c1,inactive
22,CC1(c2ccccc2)CC(C)(C)N2C(=O)C(=O)c3cccc1c32 (stereo not drawn),"inconclusive: 100 µM [inhibitor, single point]"
23,CCOC(=O)C1CCC(C(=O)OCC)N1c1ccc(C=O)cc1 (stereo not drawn),"inconclusive: 63.1 µM [inhibitor, partial curve, poor fit]"

row,Structure (SMILES),Potency
1,CCOC(=O)C1CCN(C(=O)COC(=O)CNS(=O)(=O)c2ccc(SC)c([N+](=O)[O-])c2)CC1,"inconclusive: 35.5 µM [inhibitor, partial curve, poor fit]"
2,O=C(CSc1nncs1)Nc1ccc2c(c1)OCO2,inactive
3,Cc1ccc(C)c2c(N)c3c(nc12)CCCC3,inactive
4,COc1ccc(C(=O)N2CCC3(CC2)N=C(c2ccc(C)cc2)NO3)cc1F,inactive
5,CCCC1(C)C(C#N)C(=O)NC(=O)C1C#N (stereo not drawn),inactive
6,CCN(C(=O)c1cc2c(=O)oc3ccc(C)cc3c2s1)c1ccccc1F,"inconclusive: 50.1 µM [inhibitor, partial curve, poor fit]"
7,CCOC(=O)CCNC(=O)CNC(=O)OCc1ccccc1,inactive
8,Cc1cccc(NS(=O)(=O)c2ccc(NC(=O)N3CCCC3)cc2)c1,"inconclusive: 56.2 µM [inhibitor, partial curve, poor fit]"
9,CCN(CC)CCCN(c1ccccc1)C1Cc2ccccc2C1,"inconclusive: 44.7 µM [inhibitor, partial curve, poor fit]"
10,CCn1c(O)c(C=Nc2ccccc2)sc1=S,"inconclusive: 35.5 µM [inhibitor, partial curve, poor fit]"
11,COCC1CN(C(=O)CCn2nc(C)cc2C)CC12CCOCC2 (stereo not drawn),inactive
12,C[C@H](c1ccccc1)N1C[C@H](COCc2ccccc2)Oc2cc(N3CCC[C@@H]3CO)ccc2S1(=O)=O,"inconclusive: 126 µM [inhibitor, partial curve, poor fit]"
13,COc1ccc(Oc2nc3ccccc3n3cccc23)cc1,"inconclusive: 50.1 µM [inhibitor, partial curve, poor fit]"
14,C/C(CC(=O)Nc1ccc(C)c(Cl)c1)=N\NC(=O)Cc1ccccc1,inactive
15,Cc1ccc2nc(CSc3ncnc4ccccc34)cn2c1,inactive
16,Cc1nn2c(c1-c1ccccc1Oc1ccccc1)N(CC1CCOCC1)CCC2,"inconclusive: 44.7 µM [inhibitor, full curve]"
17,O=C(CN1CCN(c2ccc(O)cc2)CC1)NC1CCCc2ccccc21 (stereo not drawn),"inconclusive: 44.7 µM [inhibitor, partial curve, poor fit]"
18,C/C(N)=C(/C#N)C(=O)COC(=O)COc1ccc(Cl)cc1,"inconclusive: 5.62 µM [inhibitor, partial curve, poor fit]"
19,O=C(c1ccccc1)N1CCCC2(C1)C(=NC1CCCCC1)NC(=O)N2c1cccnc1 (stereo not drawn),inactive
20,COc1ccc(-n2nc(C3CCN(C(=O)c4ccc(F)cc4)CC3)[nH]c2=O)cc1,"inconclusive: 79.4 µM [inhibitor, partial curve]"
21,COc1ccc(Nc2nc(-c3c[nH]c4ccccc34)cs2)cc1,"inconclusive: 50.1 µM [inhibitor, partial curve, poor fit]"
22,O=C(CN1C(=O)c2ccccc2S1(=O)=O)Nc1ccccc1C(=O)NCc1ccco1,"inconclusive: 7.94 µM [inhibitor, full curve, poor fit]"
23,COC(=O)c1ccc(COc2ccccc2/C=N/O)o1,inactive

row,Structure (SMILES),Potency
1,COC(=O)[C@@H]1Cc2c([nH]c3ccccc23)[C@H]2C[C@@H](NCCN3CCOCC3)C[C@@H](c3ccc(C(F)(F)F)cc3)N21,"inconclusive: 39.8 µM [inhibitor, partial curve, poor fit]"
2,O=C(O)CC(Cc1ccc(Cl)cc1)C(=O)O (stereo not drawn),inactive
3,COc1cc(/C=C/C(=O)OCC(=O)N(C)C2CCS(=O)(=O)C2)ccc1OC(F)F (stereo not drawn),"inconclusive: 56.2 µM [inhibitor, partial curve, poor fit]"
4,CC1CCN(C(=O)c2ccc(-c3ccc(N4CCSCC4)nc3)cc2)CC1,inactive
5,Cc1cc(NC(=O)c2cccc(OC(C)C)c2)no1,"inconclusive: 89.1 µM [inhibitor, single point]"
6,Cc1ccc2c(CN3CCc4ccccc43)cc(=O)oc2c1,"inconclusive: 39.8 µM [inhibitor, partial curve, poor fit]"
7,O[C@@H]1CN(Cc2ccc(-n3cccn3)cc2)CC[C@H]1N1CCN(c2ccccc2F)CC1,"inconclusive: 126 µM [inhibitor, single point]"
8,COc1ccc(-c2ccc(CCC(=O)O)n2-c2ccc(Cl)cc2C)cc1,"inconclusive: 89.1 µM [inhibitor, partial curve, poor fit]"
9,Cc1cccc2cc(CN(Cc3cccnc3)C(=O)C(C)C)c(=O)[nH]c12,inactive
10,NC(=S)N/N=C/c1ccccc1OC(=O)/C=C/c1ccccc1,active: 5.62 µM
11,CCOC(=O)c1cccc(NC(=O)CCc2c(C)nn(-c3ccc(N4CCOCC4)nn3)c2C)c1,"inconclusive: 5.62 µM [inhibitor, full curve, poor fit]"
12,O=C(COc1ccccc1)Nc1cccc(-c2nc3cc(Cl)ccc3o2)c1,inactive
13,N#CC1=C(N)OC2=C(C(=O)CC(c3ccccc3)C2)C1c1ccc(Cl)cc1Cl (stereo not drawn),"inconclusive: 22.4 µM [inhibitor, partial curve, poor fit]"
14,O=C(O)c1ccc(COc2ccccc2/C=C2\NC(=O)N(Cc3ccc(F)cc3)C2=O)cc1,"inconclusive: 44.7 µM [inhibitor, partial curve, poor fit]"
15,CCc1nc2c(OCc3ccc(F)cc3)cccn2c1N(C)C(=O)CC(C)C,inactive
16,COc1ccc(OC)c(C2=CC(=O)C[C@H](c3ccc(F)cc3)C2)c1,"inconclusive: 31.6 µM [inhibitor, single point]"
17,O=C(Nc1cccnc1)N1CC2ON=C(C(=O)N3CCCC3)C2C1 (stereo not drawn),"inconclusive: 100 µM [inhibitor, partial curve, poor fit]"
18,Nc1ccc2c(c1Br)Cc1ccccc1-2,inactive
19,CC(=O)c1cccc(NC(=S)NC2CCCCCCC2)c1,"inconclusive: 44.7 µM [inhibitor, partial curve, poor fit]"
20,COc1ccc(OC)c(Nc2nc(NCCCN(C)C)nc(N)c2[N+](=O)[O-])c1,inactive
21,O=C(NNC(=S)NC(=O)c1ccccc1)c1cccc([N+](=O)[O-])c1,"inconclusive: 50.1 µM [inhibitor, partial curve, poor fit]"
22,c1ccc(CCN2CCC(NC3CCCC3)CC2)cc1,"inconclusive: 44.7 µM [inhibitor, partial curve, poor fit]"

# Some of the entries above, reformatted.
row	Structure (SMILES)	Potency
20	COc1ccc(OC)c(Nc2nc(NCCCN(C)C)nc(N)c2[N+](=O)[O-])c1	inactive
21	O=C(NNC(=S)NC(=O)c1ccccc1)c1cccc([N+](=O)[O-])c1	inconclusive: 50.1 µM [inhibitor, partial curve, poor fit]
